The experiment has as its target myc-GrB-EHITSN (UniProt Q15811). In words: overlay (far-western): EC lysates on nitrocellulose overlaid with PenNPF-FITC, detected with FITC Ab.

Sequences of proteins named here, by UniProt entry; tags and fusion partners are left off. Residues count along the entry.
UniProt Q15811, residues 1-271: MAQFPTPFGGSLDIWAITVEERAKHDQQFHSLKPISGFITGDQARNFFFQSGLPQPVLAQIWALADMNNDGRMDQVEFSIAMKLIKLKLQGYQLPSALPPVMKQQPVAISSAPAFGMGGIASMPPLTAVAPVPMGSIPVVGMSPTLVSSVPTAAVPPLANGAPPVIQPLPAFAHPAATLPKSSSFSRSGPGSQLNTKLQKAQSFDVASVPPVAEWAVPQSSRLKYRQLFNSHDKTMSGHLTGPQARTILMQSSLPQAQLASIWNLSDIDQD

These are yes or no findings as the source states them, for the method shown. Some results given as binding are weak or reduced against the parent protein; the word gives no strength.

Data on one molecule can be found in US20170129923A1.

B1: PenNPF-FITC peptide (peptide)
peptide: RQIKIWFQNRRMKWKKPTGSSSTNPFL
modifications: FITC tag (where it is attached is not stated)
Regarding B1, the binding result was “binds”.
